The data set can be described thus: peptide synthesis. To be noted: late stage modification step, trifluoroacetate.

“N^2.1-[1-Methyl-3-oxobut-1-en-1-yl]-N^7.ω,N^7.ω′-(pent[2]en[2]yl[4]ylidene)lysobactin”: the step yield is 54% of th.

(Values after patent publication US20080051424A1 (priority 2004, published 2008).)
